Laboratory results published in PubChem BioAssay AID1347076 (National Center for Advancing Translational Sciences (NCATS), 2019).
Values joined by “and” are separate entries in the source; they are usually repeats but may differ in a detail not shown here. Identical values can stand only once. Out of some 400,000 compounds screened, about 13,000 (3.2%) were called active. Inconclusive means that the source gave no clear call. Such entries were picked first, then a sample of the others. Calls follow the shape of the dose curve; as a rule, active = well fitted cell-killing curve with a large enough effect; inconclusive = small, poorly fitted or top-dose-only effect, or effect the other way; inactive = flat fitted curve, though single readings scatter. Potencies of inconclusive entries are doubtful fits and often do not repeat.
% is scaled to controls: 0 for no effect and ±100 for the full control effect; potency is read from the fitted curve at half-maximal effect.

Test: qHTS assay for MDR1-selective chemotherapeutics: Primary screen using the drug-selected MDR subline cells KB-V1; also: nearly all actives have a fitted effect of over 60% in size
Settings: KB-V1 MDR cells viability, CellTiter-Glo, 72 h; activity change, negative = cytotoxicity: at 46.1 µM (top of the series)
In short: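 Cytotoxicity via CellTiter-Glo luminescence after 72 h compound exposure at 37 degrees C. Cells: drug-selected KB-V1 line, DMEM phenol-red free plus 10% FBS. Compounds tested at multiple concentrations; normalized data fitted to concentration-effect curves.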
In the case of C=CCn1c(O)c(C(CC)=Nc2cc(OC)ccc2OC)c(=O)[nH]c1=O, the Potency is reported as inconclusive: 20.6 µM [cytotoxic, single point]. For COc1cc(OC)c(OC)cc1CN1CCN(C(=O)COc2ccc3ccccc3c2)CC1, the Potency was inconclusive: 29.1 µM [cytotoxic, single point]. With CN1CC=C(/C=C/c2ccc(-c3ccccc3)cc2)CC1 the “activity change, negative = cytotoxicity” value was inactive: 2.17%. In the case of O=c1c2ccccc2nc(/C=C/c2cccc3ccccc23)n1-c1ccccc1Cl, the Potency is reported as inconclusive: 13 µM [cytotoxic, partial curve, poor fit]. With COc1ccc(Cl)cc1NC(=O)CN1C(=O)CN=C(c2ccccc2)c2cc(Cl)ccc21 the Potency was inconclusive: 25.9 µM [cytotoxic, single point]. In the case of CC[n+]1c(-c2ccccc2)c2cc(N)ccc2c2ccc(N)cc21, the Potency is reported as inconclusive: 7.31 µM [cytotoxic, partial curve]. For CC(C)c1ccc(-n2c(O)c(/C=N/NC(=O)c3ccncc3)c(=O)[nH]c2=O)cc1, the Potency was inconclusive: 23.1 µM [rising, single point]. With C[C@]12CCC3C(CC[C@H]4C[C@@H](O)CC[C@]34C)C1=CC[C@@H]2O (some centres not stated) the Potency was inconclusive: 23.1 µM [cytotoxic, single point]. With O=C(O)CSC(=S)N1CC2CC(C1)c1cccc(=O)n1C2 (configuration not stated) the “activity change, negative = cytotoxicity” value was inactive: 4.74%. For CC/C=C/CC(=O)N[C@@H](c1ccccc1)[C@@H](O)C(=O)O[C@H]1C[C@@]2(O)[C@@H](OC(=O)c3ccccc3)C3[C@](C)(C(=O)[C@H](OC(C)=O)C(=C1C)C2(C)C)[C@@H](O)C[C@H]1OC[C@@]31OC(C)=O (some centres not stated), the Potency was inconclusive: 29.1 µM [cytotoxic, single point]. With O=C1NC(=O)N(Cc2ccco2)C(=O)/C1=C/C=C/c1ccco1 the Potency was inconclusive: 29.1 µM [cytotoxic, single point]. With c1ccc2c[n+](CCCCCCCCCC[n+]3ccc4ccccc4c3)ccc2c1 the Potency was inconclusive: 8.33 µM [cytotoxic, full curve, poor fit]. In the case of CC(NCC#Cc1ccccc1)C(O)c1ccccc1 (configuration not stated), the Potency is reported as inconclusive: 14.6 µM [cytotoxic, partial curve, poor fit]. In the case of COC12CCC3(CC1C(C)(O)C(C)(C)C)[C@H]1Cc4ccc(O)c5c4[C@@]3(CCN1CC1CC1)C2O5 (some centres not stated), the Potency is reported as inconclusive: 18.4 µM [cytotoxic, single point]. For Cc1cccc(-n2c(=S)[nH]c3ccccc3c2=O)n1, the “activity change, negative = cytotoxicity” value was inactive: 4.22%. In the case of Clc1ccc(C(Cn2ccnc2)OCc2csc3c(Cl)cccc23)c(Cl)c1 (configuration not stated), the Potency is reported as inconclusive: 23.1 µM [cytotoxic, single point]. In the case of NCC(=O)c1ccccc1, the Potency is reported as inconclusive: 20.6 µM [rising, partial curve, poor fit]. With Cc1[nH]nc2ccc(-c3cncc(OC[C@@H](N)Cc4c[nH]c5ccccc45)c3)cc12 the Potency was active: 25.9 µM. In the case of O=C(COC(=O)Cc1ccccc1)NNC(=O)c1ccc([N+](=O)[O-])cc1, the Potency is reported as inconclusive: 29.1 µM [cytotoxic, single point]. With O=c1[nH]c2ccccc2n1C1CCN(C(c2cc3ccccc3o2)c2nnnn2-c2ccc3c(c2)OCCO3)CC1 (configuration not stated) the Potency was inconclusive: 29.1 µM [cytotoxic, single point]. With CN1C(=O)/C(=C/c2cccn2-c2ccc3ccccc3c2)C(=O)NC1=S the Potency was inconclusive: 23.1 µM [cytotoxic, single point]. With O=[N+]([O-])c1ccccc1CNCCc1c[nH]c2ccccc12 the “activity change, negative = cytotoxicity” value was inactive: -16.6%. In the case of COc1ccc(CN2CCCC(C(=O)c3ccc(Cl)cc3)C2)c(OC)c1 (configuration not stated), the Potency is reported as inconclusive: 6.51 µM [cytotoxic, partial curve]. In the case of CSCc1nnc2n1-c1ccc(Cl)cc1C(c1ccccc1)=NC2, the Potency is reported as active: 16.4 µM. For O=C(Nc1ccccc1)Oc1ccccc1, the Potency was inconclusive: 23.1 µM [rising, partial curve, poor fit]. For CC(=O)c1ccc(OCC(=O)N2CCCC(N3CCN(c4ccccc4C)CC3)C2)cc1 (configuration not stated), the Potency was inconclusive: 0.92 µM [cytotoxic, full curve, poor fit]. In the case of CCOC(=O)[C@]12Cc3c(cc(OC)c(OC)c3OC)[C@H]1N(C)C(=O)c1cc(OC)ccc12, the Potency is reported as active: 3.66 µM. In the case of Cc1ccc(S(=O)(=O)N2Cc3cc(N4CCOCC4)ccc3-n3nncc3C2)cc1, the Potency is reported as inconclusive: 3.66 µM [cytotoxic, full curve, poor fit]. With CCOC(=O)C1=CC(=C2C(=O)N(CC)C(=S)N(CC)C2=O)c2ccccc2O1 the “activity change, negative = cytotoxicity” value was inactive: -10.8%. In the case of Cc1ccc(OCCOc2cccc(C=C3C(=O)NC(=O)NC3=O)c2)cc1, the “activity change, negative = cytotoxicity” value is reported as inactive: 3.76%. With CC(NCc1ccccc1Cl)C(O)c1ccccc1 (configuration not stated) the Potency was inconclusive: 16.4 µM [cytotoxic, partial curve, poor fit]. With CC(=O)OC1CC2(O)C3CCC4CC(O)CCC4(C)C3CCC2(C)C1C1=CC(=O)OC1 (configuration not stated) the Potency was inconclusive: 0.366 µM [cytotoxic, full curve, poor fit]. For CCCCn1nnnc1C(CCSC)N1CCC(n2c(=O)[nH]c3ccccc32)CC1 (configuration not stated), the Potency was inconclusive: 29.1 µM [cytotoxic, single point]. For COc1ccc(OCC(=O)N2CCN(Cc3ccc4c(c3)OCO4)CC2)cc1, the “activity change, negative = cytotoxicity” value was inactive: -2.23%. With O=c1c2ccccc2nc(/C=C/c2ccc(O)cc2)n1-c1ccccc1O the “activity change, negative = cytotoxicity” value was inactive: 0.196%. With CSc1ccc(C(=O)C2CCCN(Cc3cc4ccccc4[nH]3)C2)cc1 (configuration not stated) the Potency was inconclusive: 8.2 µM [cytotoxic, partial curve]. For CC12CC[C@H]3[C@@H](CCC4(O)C[C@H](O)CCC34/C=N/NC(=O)c3ccccc3F)C1(O)CCC2C1=CC(=O)OC1 (some centres not stated), the “activity change, negative = cytotoxicity” value was inactive: 9.17%. In the case of Cc1cccn2c(=O)c3c(nc12)N1CCCCCC1C1(C3)C(=O)N(C)C(=O)N(C)C1=O (configuration not stated), the “activity change, negative = cytotoxicity” value is reported as inactive: 1.3%. For C=CC[N+]1(C)CC[C@]23c4c5ccc(O)c4O[C@H]2C(=O)CC[C@@]3(O)[C@H]1C5 (some centres not stated), the Potency was inconclusive: 0.0065 µM [rising, full curve]. In the case of N#CC(=C(O)c1ccc(S(=O)(=O)N(CCCl)CCCl)cc1)c1nc2ccccc2[nH]1, the activity change, negative = cytotoxicity is reported as inconclusive: 40.4%. In the case of CC1=C(/C=C/c2ccccc2)CCN(C)C1, the Potency is reported as inconclusive: 13 µM [cytotoxic, partial curve, poor fit]. For CCn1ccnc1CN1CCCC(C(=O)c2cccc(C(F)(F)F)c2)C1 (configuration not stated), the “activity change, negative = cytotoxicity” value was inactive: -25.1%. In the case of Cc1nc2cc(C(F)(F)F)ccc2n1C1CCN(Cc2nnnn2CCc2ccccc2)CC1, the Potency is reported as inconclusive: 16.4 µM [cytotoxic, partial curve, poor fit]. In the case of CCOC(=O)[C@]12Cc3cc(N(C)C)ccc3[C@H]1N(Cc1ccccc1)C(=O)c1ccccc12, the Potency is reported as inconclusive: 4.11 µM [cytotoxic, full curve, poor fit] and inconclusive: 23.1 µM [cytotoxic, single point]. In the case of C=CCn1c(O)c(C(CC)=Nc2ccc(N(C)C)cc2)c(=O)[nH]c1=O, the Potency is reported as inconclusive: 20.6 µM [cytotoxic, partial curve]. With CCOC(=O)C1=C(C)OC(N)=C(C#N)C12C(=O)Nc1ccc(C)cc12 (configuration not stated) the Potency was inconclusive: 29.1 µM [rising, single point]. For N#Cc1cc2c(nc1SCC(=O)Nc1ccc(OC(F)(F)F)cc1)C1CCN2CC1, the “activity change, negative = cytotoxicity” value was inactive: 7.73%. In the case of COC(=O)C1=C(c2cccc(OCc3ccccc3)c2)C[C@@H]2CC[C@H]1N2C(=O)NCCOc1ccccc1, the Potency is reported as inconclusive: 29.1 µM [cytotoxic, single point]. For CCC(CO)(C(=O)OC1C[N+]2(C)CCC1CC2)c1ccccc1 (configuration not stated), the “activity change, negative = cytotoxicity” value was inactive: -11.5%. With CN1CCc2c(C#N)c(Cl)nc(Cl)c2C1 the Potency was inconclusive: 11.6 µM [rising, partial curve, poor fit]. With Cc1cccc(NC(N)=S)c1 the “activity change, negative = cytotoxicity” value was inactive: 16.1%. For COc1ccccc1N1CCN(Cc2ccc(F)cc2)CC1, the “activity change, negative = cytotoxicity” value was inactive: -1.5%. In the case of CCC(=O)c1ccc(OCC(=O)N2CCN(CC(=O)Nc3ccc(C)cc3)CC2)cc1, the Potency is reported as inconclusive: 29.1 µM [cytotoxic, single point]. In the case of CC(C)(OOC1(c2ccccc2)NC(=O)c2ccccc21)c1ccccc1 (configuration not stated), the “activity change, negative = cytotoxicity” value is reported as inactive: -35.9%. In the case of Cc1ccc(N2C(=O)NC(=O)/C(=C\c3cccn3C(C)(C)C)C2=O)cc1, the “activity change, negative = cytotoxicity” value is reported as inactive: -3.34%. For O=C1CN=C(c2ccc(F)cc2)c2oc3ccccc3c2N1, the “activity change, negative = cytotoxicity” value was inactive: 4.56%. In the case of COc1ccc(OCC(=O)N2CCN(C3CCC(c4ccccc4)CC3)CC2)cc1 (configuration not stated), the “activity change, negative = cytotoxicity” value is reported as inactive: -25.5%. With Cc1ccc(Cn2cccc(C(=O)Nc3cc([N+](=O)[O-])ccc3C)c2=O)cc1 the activity change, negative = cytotoxicity was inconclusive: 2.71%. With CC(C)N1CCN(Cc2ccc3c(c2)OCCO3)CC1CCO (configuration not stated) the Potency was inconclusive: 4.11 µM [cytotoxic, partial curve, poor fit]. In the case of CN(C)c1ccc(N=O)cc1, the Potency is reported as inconclusive: 23.1 µM [cytotoxic, partial curve, poor fit]. For O=c1c(C=NCCN2CCNCC2)c(O)n(C2CCCCC2)c(=O)n1C1CCCCC1, the Potency was inconclusive: 29.1 µM [cytotoxic, single point]. For Cc1cccn2c(=O)c3cc(C(=O)N4CCC5(CC4)OCCO5)n(C)c3nc12, the Potency was active: 3.66 µM. In the case of C[C@@H]1CN([C@@H](C)CO)C(=O)CCCn2nncc2CO[C@H]1CN(C)C(=O)Oc1ccc2ccccc2c1, the Potency is reported as inconclusive: 16.4 µM [rising, partial curve, poor fit]. With CCOc1cc2c(cc1OCC)-n1cccc1C(c1ccc(F)cc1)NC2 (configuration not stated) the “activity change, negative = cytotoxicity” value was inactive: -8.96%. With COC(=O)C1=C(c2ccc(F)cc2F)C[C@@H]2CC[C@H]1N2C(=O)NCc1ccco1 the “activity change, negative = cytotoxicity” value was inactive: -7.52%. In the case of COc1ccccc1NC(=O)c1cn(CCC#N)nc1-c1ccc(F)cc1, the “activity change, negative = cytotoxicity” value is reported as inactive: -9.3%. In the case of COC(=O)C1=C(c2ccc(OCc3ccccc3)cc2)C[C@@H]2CC[C@H]1N2C(=O)NCCc1ccc(F)cc1, the Potency is reported as active: 16.4 µM.
